In PMC8629787 one finds binding data, which are given here for six substances.

The chains behind the UniProt entries cited, without tags or fusion partners. Where a name states a change or a piece, a line headed by the entry shows the natural chain unless it says otherwise. Residues count along the entry.
UniProt Q0B4G1: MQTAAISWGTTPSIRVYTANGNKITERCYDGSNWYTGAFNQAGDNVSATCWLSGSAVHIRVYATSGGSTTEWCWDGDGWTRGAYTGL
UniProt P20273, residues 20-847: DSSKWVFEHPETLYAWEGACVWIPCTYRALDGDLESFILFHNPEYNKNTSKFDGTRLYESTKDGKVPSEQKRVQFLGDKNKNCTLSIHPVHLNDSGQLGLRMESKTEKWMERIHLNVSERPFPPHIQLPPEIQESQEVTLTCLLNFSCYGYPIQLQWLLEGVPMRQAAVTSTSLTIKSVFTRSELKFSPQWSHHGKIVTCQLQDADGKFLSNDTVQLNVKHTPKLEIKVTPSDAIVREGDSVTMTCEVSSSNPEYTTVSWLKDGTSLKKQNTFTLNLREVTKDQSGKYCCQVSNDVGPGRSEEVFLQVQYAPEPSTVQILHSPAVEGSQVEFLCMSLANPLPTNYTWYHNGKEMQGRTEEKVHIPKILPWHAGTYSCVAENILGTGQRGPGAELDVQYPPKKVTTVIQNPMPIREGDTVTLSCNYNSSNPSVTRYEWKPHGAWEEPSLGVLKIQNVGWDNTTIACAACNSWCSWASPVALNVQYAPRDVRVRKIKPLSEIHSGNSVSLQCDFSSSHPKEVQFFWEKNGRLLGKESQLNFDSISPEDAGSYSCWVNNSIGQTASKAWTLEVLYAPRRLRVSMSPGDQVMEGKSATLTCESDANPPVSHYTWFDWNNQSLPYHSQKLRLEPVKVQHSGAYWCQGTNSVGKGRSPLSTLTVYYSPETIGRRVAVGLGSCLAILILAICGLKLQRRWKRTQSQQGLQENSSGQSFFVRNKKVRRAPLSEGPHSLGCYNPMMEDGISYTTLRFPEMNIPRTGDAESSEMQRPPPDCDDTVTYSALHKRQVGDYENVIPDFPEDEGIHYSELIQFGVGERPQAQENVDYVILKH
UniProt P25445, residues 26-335: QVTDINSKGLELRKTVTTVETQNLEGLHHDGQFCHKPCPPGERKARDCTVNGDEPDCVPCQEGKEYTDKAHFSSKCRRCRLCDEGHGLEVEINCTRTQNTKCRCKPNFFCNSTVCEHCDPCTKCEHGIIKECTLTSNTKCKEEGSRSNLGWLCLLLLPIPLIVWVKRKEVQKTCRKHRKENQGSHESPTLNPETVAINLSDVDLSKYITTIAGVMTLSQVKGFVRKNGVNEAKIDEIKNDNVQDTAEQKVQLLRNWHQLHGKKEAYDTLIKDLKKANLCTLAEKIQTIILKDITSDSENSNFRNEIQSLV
UniProt P08575, residues 26-1306: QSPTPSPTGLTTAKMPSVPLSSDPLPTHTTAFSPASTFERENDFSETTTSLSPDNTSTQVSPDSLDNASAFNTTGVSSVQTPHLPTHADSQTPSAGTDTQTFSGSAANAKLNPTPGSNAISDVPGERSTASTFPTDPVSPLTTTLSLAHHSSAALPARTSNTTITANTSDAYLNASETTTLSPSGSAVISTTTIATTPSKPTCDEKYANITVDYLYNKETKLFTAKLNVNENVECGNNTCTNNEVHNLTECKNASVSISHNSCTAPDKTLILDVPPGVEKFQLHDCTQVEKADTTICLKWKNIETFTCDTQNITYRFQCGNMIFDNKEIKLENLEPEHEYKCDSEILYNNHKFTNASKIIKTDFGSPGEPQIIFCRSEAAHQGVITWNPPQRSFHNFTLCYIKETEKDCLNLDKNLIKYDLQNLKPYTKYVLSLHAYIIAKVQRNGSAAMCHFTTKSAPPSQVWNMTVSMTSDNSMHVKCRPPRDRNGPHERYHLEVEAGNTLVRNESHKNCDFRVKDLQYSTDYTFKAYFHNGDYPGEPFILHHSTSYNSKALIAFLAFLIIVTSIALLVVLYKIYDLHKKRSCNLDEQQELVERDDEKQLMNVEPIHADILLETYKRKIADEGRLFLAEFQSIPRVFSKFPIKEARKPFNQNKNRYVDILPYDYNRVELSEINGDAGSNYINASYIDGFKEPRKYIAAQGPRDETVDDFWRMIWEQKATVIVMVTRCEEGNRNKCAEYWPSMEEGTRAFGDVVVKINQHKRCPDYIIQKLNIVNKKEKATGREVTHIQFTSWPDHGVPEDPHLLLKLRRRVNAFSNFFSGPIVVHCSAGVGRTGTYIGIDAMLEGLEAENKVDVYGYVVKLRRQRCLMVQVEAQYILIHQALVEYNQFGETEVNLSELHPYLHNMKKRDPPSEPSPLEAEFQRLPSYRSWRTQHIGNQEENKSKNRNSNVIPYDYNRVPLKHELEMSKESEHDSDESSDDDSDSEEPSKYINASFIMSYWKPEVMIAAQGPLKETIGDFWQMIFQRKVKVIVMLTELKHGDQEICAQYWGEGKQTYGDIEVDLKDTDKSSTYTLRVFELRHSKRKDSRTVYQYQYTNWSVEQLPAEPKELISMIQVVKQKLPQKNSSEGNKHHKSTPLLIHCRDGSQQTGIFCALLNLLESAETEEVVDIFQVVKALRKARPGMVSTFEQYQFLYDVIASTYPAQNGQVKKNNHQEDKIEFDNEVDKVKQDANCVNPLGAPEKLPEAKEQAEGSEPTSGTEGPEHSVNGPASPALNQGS
UniProt P15391, residues 20-556: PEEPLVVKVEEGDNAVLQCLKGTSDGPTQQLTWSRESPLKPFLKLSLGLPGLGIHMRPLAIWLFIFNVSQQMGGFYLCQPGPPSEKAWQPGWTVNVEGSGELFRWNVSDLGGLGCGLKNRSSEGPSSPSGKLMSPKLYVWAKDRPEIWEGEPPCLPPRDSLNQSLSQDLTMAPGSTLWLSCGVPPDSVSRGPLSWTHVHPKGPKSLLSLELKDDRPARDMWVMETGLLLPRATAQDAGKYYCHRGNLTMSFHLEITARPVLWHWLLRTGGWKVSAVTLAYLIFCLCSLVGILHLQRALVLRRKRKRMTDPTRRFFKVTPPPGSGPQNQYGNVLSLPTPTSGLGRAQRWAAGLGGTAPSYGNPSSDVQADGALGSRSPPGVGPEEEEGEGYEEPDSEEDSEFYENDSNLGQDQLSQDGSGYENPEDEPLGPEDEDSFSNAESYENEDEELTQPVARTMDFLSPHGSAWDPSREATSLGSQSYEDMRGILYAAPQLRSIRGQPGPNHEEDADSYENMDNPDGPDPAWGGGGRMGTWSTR
UniProt P40259, residues 29-229: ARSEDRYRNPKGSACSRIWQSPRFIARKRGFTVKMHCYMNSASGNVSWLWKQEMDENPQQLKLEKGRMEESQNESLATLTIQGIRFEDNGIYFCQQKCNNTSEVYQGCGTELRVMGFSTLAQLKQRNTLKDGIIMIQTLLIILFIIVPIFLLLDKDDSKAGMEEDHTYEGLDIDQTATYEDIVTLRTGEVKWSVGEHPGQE
UniProt P06213, residues 28-1382: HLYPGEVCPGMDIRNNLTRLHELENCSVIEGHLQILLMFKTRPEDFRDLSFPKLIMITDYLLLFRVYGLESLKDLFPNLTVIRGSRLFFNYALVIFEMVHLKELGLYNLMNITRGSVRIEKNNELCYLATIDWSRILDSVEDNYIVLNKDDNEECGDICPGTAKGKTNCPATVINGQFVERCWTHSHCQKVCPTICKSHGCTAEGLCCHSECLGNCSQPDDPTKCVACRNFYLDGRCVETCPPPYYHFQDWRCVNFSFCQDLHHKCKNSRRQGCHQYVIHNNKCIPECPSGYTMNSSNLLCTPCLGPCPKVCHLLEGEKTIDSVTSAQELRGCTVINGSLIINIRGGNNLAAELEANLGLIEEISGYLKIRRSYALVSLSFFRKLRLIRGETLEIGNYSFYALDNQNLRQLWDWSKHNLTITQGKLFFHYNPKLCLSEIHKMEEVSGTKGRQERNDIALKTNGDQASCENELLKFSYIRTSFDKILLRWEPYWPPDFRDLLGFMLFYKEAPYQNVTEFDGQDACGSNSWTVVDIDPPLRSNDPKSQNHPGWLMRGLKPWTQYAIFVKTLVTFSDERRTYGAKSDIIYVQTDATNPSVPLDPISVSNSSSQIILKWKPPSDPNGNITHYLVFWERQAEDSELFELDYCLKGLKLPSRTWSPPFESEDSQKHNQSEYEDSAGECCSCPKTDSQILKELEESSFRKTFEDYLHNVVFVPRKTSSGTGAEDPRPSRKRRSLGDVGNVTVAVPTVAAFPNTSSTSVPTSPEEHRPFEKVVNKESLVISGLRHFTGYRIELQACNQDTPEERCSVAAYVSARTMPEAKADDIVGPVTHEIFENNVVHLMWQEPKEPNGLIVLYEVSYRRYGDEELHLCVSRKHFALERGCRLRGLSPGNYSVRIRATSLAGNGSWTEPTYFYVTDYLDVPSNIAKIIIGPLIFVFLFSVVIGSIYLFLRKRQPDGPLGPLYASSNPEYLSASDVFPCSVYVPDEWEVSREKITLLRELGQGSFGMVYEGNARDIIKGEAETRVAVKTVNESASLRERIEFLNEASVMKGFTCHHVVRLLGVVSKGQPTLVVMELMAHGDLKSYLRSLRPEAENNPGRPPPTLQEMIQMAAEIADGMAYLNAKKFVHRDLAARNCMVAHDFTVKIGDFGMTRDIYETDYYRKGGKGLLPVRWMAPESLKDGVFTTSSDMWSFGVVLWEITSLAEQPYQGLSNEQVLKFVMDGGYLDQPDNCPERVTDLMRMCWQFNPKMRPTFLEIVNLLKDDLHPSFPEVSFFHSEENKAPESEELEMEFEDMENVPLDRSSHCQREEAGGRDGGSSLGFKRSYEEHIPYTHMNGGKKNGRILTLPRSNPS

Results are given in words; binding and its absence hold for the method and conditions named. In cells and extracts the contact can be indirect. These calls come from enrichment with a bait or labelling near it, and not all partners need be listed.

In the experiment the target is Biotinylated BambL (BambL-biotin) (UniProt Q0B4G1). Put plainly: affinity purification with mass spectrometry; only the target purified.
As for “CD22 (Siglec-2) (from UniProt P20273 20-847) (receptor)”, the binding result was “binds”.

As for “death receptor FAS-R (CD95, APO-1) (from UniProt P25445 26-335)”, the binding entry was “binds”.

In the case of “CD45 (B220, PTPRC) (from UniProt P08575 26-1306) (receptor)”, the binding entry was “binds”.

For the substance “CD19 (from UniProt P15391 20-556) (receptor)”, the binding entry is “binds”. The same measure for “Igβ (CD79b) (from UniProt P40259 29-229) (receptor)”: “binds”; for “insulin receptor (from UniProt P06213 28-1382)”: “binds”.
